Data: patent publication US20180030151A1
Substitutions are numbered along the chain they refer to. No constants are given. Whether binding was seen depends on the method and setting. Some binding calls cover weakened binding; strength is not graded here.

By UniProt entry, the sequences of proteins in these tests, tags left out. Where a name states a change or a piece, a line headed by the entry shows the natural chain unless it says otherwise.
UniProt P10646: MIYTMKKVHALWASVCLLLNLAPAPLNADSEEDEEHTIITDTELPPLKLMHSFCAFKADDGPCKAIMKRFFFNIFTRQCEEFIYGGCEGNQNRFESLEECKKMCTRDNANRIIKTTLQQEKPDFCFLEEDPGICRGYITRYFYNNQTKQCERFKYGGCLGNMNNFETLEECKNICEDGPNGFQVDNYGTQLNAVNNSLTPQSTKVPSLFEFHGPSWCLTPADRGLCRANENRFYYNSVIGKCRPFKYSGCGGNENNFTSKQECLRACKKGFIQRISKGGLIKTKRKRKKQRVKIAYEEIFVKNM

B1: clone 22 (antibody, V domains shown)
VH: EVQLVESGGGLVKPGGSLRLSCAASGFTFSSYAMNWVRQAPGKGLEWVSTITTGGSHTYYADSVEGRFTISRDNAKNSLYLQMNSLRAEDTAVYYCARQDGHFLMDYWGQGTLVTVSS
VL: DVVMTQTPLSLPVTLGQPASISCKSSPSLLDVDGKTYLNWLQQRPGQSPKRLIYLVSKLDSGVPDRFTGSGSGTDFTLKISRVEAEDVGVYYCWQGTYFPFTFGQGTKVEIKR
B2: clone 23 (antibody, V domains shown)
VH: B1 VH with S31H, H57Y
VL: B1 VL with V32I, Y98H, F99L

Target: recombinant human TFPI (tissue factor pathway inhibitor) (human) (UniProt P10646)
Assay: yeast-display scFv, FACS with biotinylated TFPI

| Binder | binding |
| --- | --- |
| B1 | binds |
| B2 | binds |
